No constants are given. Whether binding was seen depends on the method and setting. For some assays here: Binding calls can cover weak binding; strength is not graded here.
Assays:
[1] = target: His-SUMO_GlpΔloop (Corynebacterium glutamicum ATCC13032); assay: BLI; His-SUMO_Glp variants immobilised on Ni-NTA biosensors; FtsZ 10 μM in polymerization buffer (25 mM Pipes pH 6.9, 100 mM KCl, 10 mM MgCl2), pre-incubated with or without 1 mM GTP; 25 °C; both purified
[2] = target: His-SUMO_Glp (Corynebacterium glutamicum ATCC13032); assay: as above

- binding [1]: no binding (tested: 10 μM)
- binding [2]: binds
B1: FtsZ (purified, in solution) (protein, UniProt P94337 1-442)
chain: MTSPNNYLAKIKVVGVGGGGVNAVNRMIEEGLKGVEFIAVNTDSQALMFSDADVKLDIGREATRGLGAGANPEVGRASAEDHKNEIEETIKGADMVFVTAGEGGGTGTGAAPVVAGIAKKMGALTIGVVTKPFEFEGRRRTRQAEEGIAALKEVCDTLIVIPNDRLLELGDANLSIMEAFRAADEVLHNGVQGITNLITIPGVINVDFADVRSVMSEAGSALMGVGSARGDNRVVSATEQAINSPLLEATMDGATGVLLSFAGGSDLGLMEVNAAASMVRERSDEDVNLIFGTIIDDNLGDEVRVTVIATGFDAARASAAENRRAGISAAPAAEPVQQQVPTTNATLPPEKESIFGGAREENDPYLSRSAGARHRIEETRSGGGLFTTGNDRDYRRDERREDHRDERRDERRDDRSYDRRDDRRDDRRDDRGDDLDVPSFLQ
